Test results as given in US11918597B2, “Triple combination therapies for anti-aging” (LUNELLA BIOTECH, INC., priority 2018, dated 2024).
For at least one compound, name, drawing or mass did not settle the structure.

Key:
MCF7 cells = assay: Mammosphere formation assay (CSC propagation); assay type: cell-based, human; details: alone at low concentrations (0.1 μM and 1 μM)
Description: The following paragraphs discuss laboratory data and analysis for select embodiments of the present approach. Doxycycline and azithromycin were tested alone and in combination at low concentrations to evaluate the resulting inhibitory effect on mammosphere formation. FIGS. 1A-1C summarize mammosphere formation data for varying concentrations and combinations.
The temporal effects of pre-treatment on the efficacy of the present approach have been evaluated in the pre-clinical setting, using CSC propagation as the measurement. […] This may be due to MCF7 cells' ability to induce oxidative stress, driving an anti-oxidant response. Given these […] results, it appears embodiments of the present approach that simultaneously co-administer all three therapeutic agents appear to have the most significant impact on the CSC population, and are preferred. […]
Mammosphere Formation Assay: A single cell suspension was prepared using enzymatic (lx Trypsin-EDTA, Sigma Aldrich, #T3924), and manual disaggregation (25 gauge needle). […] After 5 days of culture, 3D mammospheres >50 μm were counted using an eye piece (“graticule”), and the percentage of cells plated which formed spheres was calculated and is referred to as percent mammosphere formation (MFE, and was normalized to one (1=100% MSF).

[1] = test system: early breast cancer patients; details: cited from earlier work

For `C[C@H]1c2cccc(O)c2C(=O)C2=C(O)[C@]3(O)C(=O)C(C(N)=O)=C(O)[C@@H](N(C)C)[C@@H]3[C@@H](O)[C@@H]21` [doxycycline], the “inhibition of mammosphere formation” value (MCF7 cells) is given as “little or no effect”, the positive response rate ([1]; CD44 reduction, 9 patients) is given as 90% and the “rise in CD44” value ([1]; only one patient) is given as 15%. For the same compound, the “decrease in the stemness marker CD44, post- vs pre-doxycycline tumor samples” value ([1]; oral doxycycline, short-term pre-operative, statistically significant) was 40% and the “markers of mitochondria, proliferation, apoptosis and neo-angiogenesis” value ([1]; pre- vs post-doxycycline) was “all similar between the two groups”.
